Binding data for 2 molecules are collected here from article PMC12804905.

No constants are given. Whether binding was seen depends on the method and setting. In cells and extracts the contact can be indirect. Sequences can lack the tags named with a protein.

Assay [1] addresses T1, ATFS-1::2xMYC (C. elegans) (UniProt Q23272).
T1 sequence: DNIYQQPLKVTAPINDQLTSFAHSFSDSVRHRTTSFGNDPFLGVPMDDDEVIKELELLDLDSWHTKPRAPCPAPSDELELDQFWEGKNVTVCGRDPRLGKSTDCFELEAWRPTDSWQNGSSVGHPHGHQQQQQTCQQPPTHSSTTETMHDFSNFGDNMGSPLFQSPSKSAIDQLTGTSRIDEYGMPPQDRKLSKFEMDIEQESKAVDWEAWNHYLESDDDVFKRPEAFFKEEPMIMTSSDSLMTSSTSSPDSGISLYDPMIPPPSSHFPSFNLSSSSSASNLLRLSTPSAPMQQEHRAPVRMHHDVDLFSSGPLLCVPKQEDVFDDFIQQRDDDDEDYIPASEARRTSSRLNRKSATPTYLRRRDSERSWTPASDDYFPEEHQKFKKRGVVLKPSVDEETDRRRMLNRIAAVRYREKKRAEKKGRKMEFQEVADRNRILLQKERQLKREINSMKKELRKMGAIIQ
Description: co-IP; HEK293T cells co-expressing the three proteins from pSZ336; lysate immunoprecipitated overnight at 4 °C with anti-MYC, anti-FLAG or anti-HA magnetic beads; washes with PBS, RIPA with 300 mM NaCl and RIPA with 1 M NaCl; western blot for the individual protein tags.

Assay [2] deals with T2, HIF-1(P621G)::3xFLAG (C. elegans) (UniProt G5EGD2).
T2 sequence: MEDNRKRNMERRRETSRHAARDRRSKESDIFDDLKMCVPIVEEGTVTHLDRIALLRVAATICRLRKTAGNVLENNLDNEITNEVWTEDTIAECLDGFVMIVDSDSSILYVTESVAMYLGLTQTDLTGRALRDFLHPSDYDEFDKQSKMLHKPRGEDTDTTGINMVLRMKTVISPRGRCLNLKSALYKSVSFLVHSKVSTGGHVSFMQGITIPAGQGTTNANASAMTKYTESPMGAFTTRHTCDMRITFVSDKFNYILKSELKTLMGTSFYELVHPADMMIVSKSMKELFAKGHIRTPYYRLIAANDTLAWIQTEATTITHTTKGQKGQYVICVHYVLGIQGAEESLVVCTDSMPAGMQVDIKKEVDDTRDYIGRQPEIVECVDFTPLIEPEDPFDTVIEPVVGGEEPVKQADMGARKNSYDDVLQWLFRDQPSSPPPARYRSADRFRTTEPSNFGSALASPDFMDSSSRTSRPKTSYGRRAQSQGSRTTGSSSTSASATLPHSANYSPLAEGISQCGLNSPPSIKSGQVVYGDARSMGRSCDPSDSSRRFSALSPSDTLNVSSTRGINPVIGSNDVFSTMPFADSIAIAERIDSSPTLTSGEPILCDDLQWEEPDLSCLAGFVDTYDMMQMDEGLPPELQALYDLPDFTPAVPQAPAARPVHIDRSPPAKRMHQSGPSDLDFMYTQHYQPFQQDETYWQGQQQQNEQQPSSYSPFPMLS
The description is as above.

B1: DAF-16::HA (protein, UniProt O16850-8 1-541)
chain: MQLEQKSSLHCSKCRNFLQKFSQDMQAWNCRELDSPLPSDITLHNLEPARPDSGMSFSTDFDDDFFNLDLHQQERSASFGGVTQYSQQFLREKCSFSPYFHTSLETVDSGRTSLYGSNEQCGQLGGASSNGSTAMLHTPDGSNSHQTSFPSDFRMSESPDDTVSGKKTTTRRNAWGNMSYAELITTAIMASPEKRLTLAQVYEWMVQNVPYFRDKGDSNSSAGWKNSIRHNLSLHSRFMRIQNEGAGKSSWWVINPDAKPGRNPRRTRERSNTIETTTKAQLEKSRRGAKKRIKERALMGSLHSTLNGNSIAGSIQTISHDLYDDDSMQGAFDNVPSSFRPRTQSNLSIPGSSSRVSPAIGSDIYDDLEFPSWVGESVPAIPSDIVDRTDQMRIDATTHIGGVQIKQESKPIKTEPIAPPPSYHELNSVRGSCAQNPLLRNPIVPSTNFKPMPLPGAYGNYQNGGITPINWLSTSNSSPLPGIQSCGIVAAQHTVASSSALPIDLENLTLPDQPLMDTMDVDALIRHELSQAGGQHIHFDL
Regarding B1, the binding entry in assay [1] and in assay [2] was “no binding” in each case.

B2: ATFS-1::2xMYC (protein, UniProt Q23272-1 24-488)
chain: T1 sequence
Regarding B2, in assay [2], the binding entry was “no binding”.
